Measured values: PubChem BioAssay AID1347423 (Functional Genomics Laboratory (NCATS/FGL), 2020)
The whole screen tested about 52,000 sequences, of which about 210 (0.4%) were called active.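 The calls were made as follows: active = gene whose silencing raises cell survival under the drug, median off-target-corrected z-score across its silencing RNAs 2 or more; inactive = the rest.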 This is one part of the list.

Test: Resistance to Poly (ADP-Ribose) Polymerase inhibitor: Gene Identification via Genome-wide siRNA Screen
Settings: mouse BRCA2 R2336H ES cells, olaparib, CellTiter-Glo viability; stronger effect = higher value
Outline: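 Genome-wide siRNA screen (3 siRNAs/gene, 20 nM) in mouse ES cells carrying hypomorphic BRCA2 R2336H; olaparib 500 nM added 48 h post-transfection, CellTiter-Glo viability 72 h later. Normalized to plate-median negative control; MAD z-scores, gene median, seed-adjusted.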

Question: Which z-score does the source give for GCAAAGGAGGCUUCUAUUGTT against Olfr380 here?
Answer: The z-score was inactive: -1.3.

Question: For GGAUAGUCUUUCCAGAUGGTT against Slamf7, which z-score is on record?
Answer: The z-score was inactive: -0.0727.

Question: With CCGAGAACUACCUGUGUAATT against AA407659 as the sequence, how does the z-score read?
Answer: The z-score was inactive: -1.5.

Question: Which z-score does the source give for GGGUGGUACUAAACUCCAUTT against Ptpns1 here?
Answer: The z-score was inactive: -0.599.

Question: For CCGUUUGUCCCAGAUAUGATT against Garnl4, which z-score is on record?
Answer: Its z-score is inactive: 1.95.

Question: For GGGAUAGGAAAAAGUAACATT against AI661017, which z-score is on record?
Answer: The z-score was inactive: -0.605.

Question: For GGUCUUCGUGGACAUUCCATT against Arrdc2, which z-score is on record?
Answer: Its z-score is inactive: -0.993.

Question: For GGCAGUGGGAAGUCUUUCATT against Kif17, which z-score is on record?
Answer: The z-score was inactive: -0.296.

Question: With GGAAUAUUCAGAAUCCCUCTT against Tnfaip8l3 as the sequence, how does the z-score read?
Answer: The z-score was inactive: 1.

Question: Which z-score does the source give for CGUUGAUCCUUUCUAACAUTT against Olfr888 here?
Answer: Its z-score is inactive: -1.97.

Question: For “GGAUUUCUCUGCCUGUACUTT against D330012F22Rik”, which z-score is on record?
Answer: Its z-score is inactive: -1.03.

Question: Which z-score does the source give for GCACCCUCUUAUGAAUUUATT against BC057893 here?
Answer: The z-score was inactive: 0.487.

Question: With GCGGAACUGAUUUAGUUCATT against Kazald1 as the sequence, how does the z-score read?
Answer: Its z-score is inactive: -0.788.

Question: For GGCUCACACUCCUGUUAAUTT against BC004044, which z-score is on record?
Answer: Its z-score is inactive: -2.59.

Question: For GCUGAAAUACGCUGACAUCTT against Jundm2, which z-score is on record?
Answer: Its z-score is inactive: 0.732.

Question: With GGUUGCCCAAAACUCUAGATT against Elovl7 as the sequence, how does the z-score read?
Answer: Its z-score is inactive: -0.758.

Question: Which z-score does the source give for GGUGGAGGCAGGAAAAUCUTT against Mrp63 here?
Answer: Its z-score is inactive: -0.422.

Question: Which z-score does the source give for GCUACUAUAGCAACCUAACTT against Eef2k here?
Answer: Its z-score is inactive: -0.0224.

Question: Which z-score does the source give for GCAGCCAAUGGGUUCGCUUTT against Hoxa3 here?
Answer: The z-score was inactive: -0.594.

Question: For GCGAUUGUUGCCUAUGGGUTT against Hig1, which z-score is on record?
Answer: The z-score was inactive: 1.91.

Question: With GGUCAUUGGCUUGAGUGCATT against Akp5 as the sequence, how does the z-score read?
Answer: The z-score was inactive: -0.663.

Question: For “GGAGCUGCUUGCUCAAAGATT against 4930438D12Rik”, which z-score is on record?
Answer: Its z-score is inactive: 1.16.

Question: For “GCUCUACAGUAGAACAAACTT against 4930563A03Rik”, which z-score is on record?
Answer: The z-score was inactive: -0.423.

Question: Which z-score does the source give for “GCGCGGCUUCAGAAUUAUCTT against A230062G08Rik” here?
Answer: The z-score was inactive: 0.994.

Question: With GGGUCAAAAAGUCAAAUCUTT against V1re9 as the sequence, how does the z-score read?
Answer: The z-score was inactive: 0.589.

Question: Which z-score does the source give for “GGUCAUCUGCCACAUGGCATT against 4921530G04Rik” here?
Answer: Its z-score is inactive: 1.36.

Question: For GGCGGUUUUUUGUCUAUGCTT against Serpina1e, which z-score is on record?
Answer: The z-score was inactive: -0.238.

Question: With GAGCUCUUGGUGGAUCAUCTT against Foxo3 as the sequence, how does the z-score read?
Answer: Its z-score is inactive: -0.584.

Question: For GGGUCAGUGACUAAGCUUCTT against Abca7, which z-score is on record?
Answer: Its z-score is inactive: 0.0913.

Question: With GGAAAUCUUCAAACUUAGATT against Tlk2 as the sequence, how does the z-score read?
Answer: Its z-score is inactive: 0.884.

Question: Which z-score does the source give for “GGCAACAGACAAGAACAAGTT against D830019K17Rik” here?
Answer: The z-score was inactive: 0.425.

Question: For “GGGUCUUCAGUAUUAACACTT against 1600012F09Rik”, which z-score is on record?
Answer: Its z-score is inactive: 0.745.

Question: For GGAGGAUAUGAGCAAGUACTT against Isg20, which z-score is on record?
Answer: Its z-score is inactive: -0.104.

Question: With GGCAGCGAAAGUUUUCAAGTT against Pcdhga12 as the sequence, how does the z-score read?
Answer: The z-score was inactive: 1.96.

Question: With GCUGACUCCAUCCUAACAGTT against Cideb as the sequence, how does the z-score read?
Answer: The z-score was inactive: -0.516.

Question: For CGGGACUAUUAUUACUCCATT against Ap2m1, which z-score is on record?
Answer: The z-score was inactive: 0.665.

Question: With CGAAUACAACCAGUUUCUGTT against Adam11 as the sequence, how does the z-score read?
Answer: Its z-score is inactive: 1.65.

Question: With “CGACUGAUAGAUGAGUAAATT against C130026L21Rik” as the sequence, how does the z-score read?
Answer: Its z-score is inactive: -1.63.

Question: Which z-score does the source give for GCCUAUGGACCAGUUAGAUTT against Nono here?
Answer: The z-score was inactive: -0.157.

Question: With CCAGGAAUGACACGGGAUGTT against Mdh2 as the sequence, how does the z-score read?
Answer: Its z-score is inactive: 0.0125.

Question: For GGUGAAAAGUCUCUGAAUGTT against Pbk, which z-score is on record?
Answer: Its z-score is inactive: -0.191.

Question: With GCGACUAGUAGUGCAUGAATT against Wdr13 as the sequence, how does the z-score read?
Answer: The z-score was inactive: -1.81.

Question: For GCAAUCCAUUGAAAGAGGCTT against Hps3, which z-score is on record?
Answer: The z-score was inactive: 0.28.

Question: With GGCCGUUCCAAAAGAGACATT against Gm963 as the sequence, how does the z-score read?
Answer: Its z-score is inactive: 1.93.

Question: With “GGAGCUAGAGAGAUCUGCATT against 1810049K24Rik” as the sequence, how does the z-score read?
Answer: Its z-score is inactive: -1.16.

Question: Which z-score does the source give for GGGAAGGCUGAAUGACUGCTT against Vamp5 here?
Answer: The z-score was inactive: -0.286.

Question: Which z-score does the source give for CCUCAGUACGUGCAGUAUGTT against Mos here?
Answer: Its z-score is inactive: 0.331.

Question: For CGGUCUGCUCUACAUUGUCTT against Nek4, which z-score is on record?
Answer: Its z-score is inactive: 0.0821.

Question: With GGCAUGAUCAUGCAUGUGATT against Hils1 as the sequence, how does the z-score read?
Answer: The z-score was inactive: -0.199.

Question: For “GGUGCUUCUUUUGAGAAUGTT against D230014K01Rik”, which z-score is on record?
Answer: The z-score was inactive: 2.19.

Question: For GGUGAUGUAUUAUUAUCCATT against Defb12, which z-score is on record?
Answer: Its z-score is inactive: 0.642.

Question: For GGUGGUAACAUUAACUGAGTT against Solt, which z-score is on record?
Answer: Its z-score is inactive: -2.31.

Question: With CGGUUUCAGUCUUUUGGAUTT against Cd84 as the sequence, how does the z-score read?
Answer: Its z-score is inactive: 1.6.

Question: Which z-score does the source give for GGACCUGGAAAUAAUUGUUTT against Pex2 here?
Answer: The z-score was inactive: -1.

Question: For “GGAAUGCAAUGACAAAUGATT against D17Ertd288e”, which z-score is on record?
Answer: The z-score was inactive: 0.0555.

Question: Which z-score does the source give for GGCUUCUAUUUGUUUCCUGTT against Cbl here?
Answer: Its z-score is inactive: -0.452.

Question: With GGAAACCAUUGAAGAUGUUTT against Psmd13 as the sequence, how does the z-score read?
Answer: The z-score was inactive: -3.12.

Question: Which z-score does the source give for “CGCGUUGGCAGAAAUUGAATT against 4933421G18Rik” here?
Answer: The z-score was inactive: 0.487.

Question: With GGUCAUAUAGGGAUACUUATT against Dhrs2 as the sequence, how does the z-score read?
Answer: Its z-score is inactive: -1.23.

Question: For GGCCCUUUAUUUUGAGUACTT against Cp, which z-score is on record?
Answer: The z-score was inactive: 2.53.

Question: Which z-score does the source give for GGAUGAGAGUCCACAGCAATT against Edg7 here?
Answer: Its z-score is inactive: 1.81.

Question: Which z-score does the source give for GCAUAGUAGGAUCUGUCUUTT against Tdpoz5 here?
Answer: The z-score was inactive: 0.614.

Question: For GGAAUCCUGCUGUGGUGUUTT against Cyp2c65, which z-score is on record?
Answer: The z-score was inactive: -0.491.

Question: For “GGAAGAAGAAGGAGCUAGATT against D11Ertd730e”, which z-score is on record?
Answer: Its z-score is inactive: -1.74.

Question: For GGAAACUAUGGGCAAGUAATT against Olfr1239, which z-score is on record?
Answer: Its z-score is inactive: -1.58.

Question: With GGAGGGAAGAAACAAUCUATT against Rnf40 as the sequence, how does the z-score read?
Answer: Its z-score is inactive: -0.117.

Question: For GGUCCUACUAUAACCUGCGTT against Gdf3, which z-score is on record?
Answer: The z-score was inactive: -1.21.
